Assay results taken from the supplement of paper PMC10849652.
The other results are listed elsewhere or left out.

Chains of the proteins cited; added tags and fusions are not shown. Lines headed by an entry give the natural chain unless they say otherwise; changes in a name come on top.
UniProt Q5MIZ7: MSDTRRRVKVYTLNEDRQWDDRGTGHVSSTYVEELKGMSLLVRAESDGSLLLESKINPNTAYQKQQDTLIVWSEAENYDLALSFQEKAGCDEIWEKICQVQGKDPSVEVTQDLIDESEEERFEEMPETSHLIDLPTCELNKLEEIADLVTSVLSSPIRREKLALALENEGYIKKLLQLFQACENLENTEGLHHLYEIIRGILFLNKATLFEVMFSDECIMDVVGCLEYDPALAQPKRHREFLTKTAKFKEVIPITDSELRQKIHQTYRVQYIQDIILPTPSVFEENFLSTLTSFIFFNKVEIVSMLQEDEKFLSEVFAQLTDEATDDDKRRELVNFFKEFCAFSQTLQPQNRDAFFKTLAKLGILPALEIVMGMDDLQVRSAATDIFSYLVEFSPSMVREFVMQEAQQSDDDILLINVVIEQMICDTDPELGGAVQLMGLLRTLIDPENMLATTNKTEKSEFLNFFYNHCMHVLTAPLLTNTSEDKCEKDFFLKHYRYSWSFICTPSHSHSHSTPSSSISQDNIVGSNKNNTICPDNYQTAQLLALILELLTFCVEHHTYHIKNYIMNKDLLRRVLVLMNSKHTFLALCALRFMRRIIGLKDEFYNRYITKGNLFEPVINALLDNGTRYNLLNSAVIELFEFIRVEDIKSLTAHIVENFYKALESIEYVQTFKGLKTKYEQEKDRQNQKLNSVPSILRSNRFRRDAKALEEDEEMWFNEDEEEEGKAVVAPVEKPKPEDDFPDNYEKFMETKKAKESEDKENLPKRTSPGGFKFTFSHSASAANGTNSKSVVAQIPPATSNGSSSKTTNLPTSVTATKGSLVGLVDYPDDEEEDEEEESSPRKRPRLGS
UniProt P41236: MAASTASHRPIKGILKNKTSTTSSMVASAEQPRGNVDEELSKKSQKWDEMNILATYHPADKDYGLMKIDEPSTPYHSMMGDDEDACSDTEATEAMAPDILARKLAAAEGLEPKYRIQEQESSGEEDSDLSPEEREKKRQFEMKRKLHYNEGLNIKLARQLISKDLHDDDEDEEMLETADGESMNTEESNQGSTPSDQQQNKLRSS
UniProt Q9UGJ0: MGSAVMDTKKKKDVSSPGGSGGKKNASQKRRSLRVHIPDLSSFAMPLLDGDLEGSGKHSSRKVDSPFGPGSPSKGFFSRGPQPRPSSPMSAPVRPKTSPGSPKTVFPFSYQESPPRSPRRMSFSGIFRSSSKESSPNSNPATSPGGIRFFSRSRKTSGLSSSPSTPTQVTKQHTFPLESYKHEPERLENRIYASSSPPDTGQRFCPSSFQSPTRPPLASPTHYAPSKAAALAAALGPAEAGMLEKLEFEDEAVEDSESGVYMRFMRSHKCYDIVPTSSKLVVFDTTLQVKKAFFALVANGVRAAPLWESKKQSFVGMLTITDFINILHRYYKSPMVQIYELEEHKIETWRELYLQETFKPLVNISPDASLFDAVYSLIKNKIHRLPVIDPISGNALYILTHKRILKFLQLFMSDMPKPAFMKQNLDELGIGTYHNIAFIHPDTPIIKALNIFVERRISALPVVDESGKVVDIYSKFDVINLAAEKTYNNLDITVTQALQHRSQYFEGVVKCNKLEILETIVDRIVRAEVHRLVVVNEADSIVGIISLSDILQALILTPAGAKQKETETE
UniProt Q9NR22, whole entry, looked up: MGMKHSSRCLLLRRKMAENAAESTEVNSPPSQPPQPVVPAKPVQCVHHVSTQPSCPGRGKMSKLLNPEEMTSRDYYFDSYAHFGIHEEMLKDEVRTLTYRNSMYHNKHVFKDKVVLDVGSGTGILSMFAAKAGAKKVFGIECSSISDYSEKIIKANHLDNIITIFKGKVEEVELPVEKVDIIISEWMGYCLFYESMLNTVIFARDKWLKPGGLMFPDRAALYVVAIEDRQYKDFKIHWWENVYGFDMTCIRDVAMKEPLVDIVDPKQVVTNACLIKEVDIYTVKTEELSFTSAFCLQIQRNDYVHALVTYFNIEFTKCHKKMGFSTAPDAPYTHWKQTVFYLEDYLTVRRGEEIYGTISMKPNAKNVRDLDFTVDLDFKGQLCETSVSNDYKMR
UniProt P67775, whole entry, looked up: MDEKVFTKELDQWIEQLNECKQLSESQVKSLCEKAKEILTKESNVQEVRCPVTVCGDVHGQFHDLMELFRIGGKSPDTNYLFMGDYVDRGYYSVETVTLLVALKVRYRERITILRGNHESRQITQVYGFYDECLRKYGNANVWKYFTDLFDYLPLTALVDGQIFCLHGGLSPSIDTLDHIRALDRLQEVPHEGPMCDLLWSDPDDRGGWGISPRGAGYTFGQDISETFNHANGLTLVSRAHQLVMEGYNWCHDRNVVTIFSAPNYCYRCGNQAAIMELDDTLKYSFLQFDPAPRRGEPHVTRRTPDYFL
UniProt O14744, whole entry, looked up: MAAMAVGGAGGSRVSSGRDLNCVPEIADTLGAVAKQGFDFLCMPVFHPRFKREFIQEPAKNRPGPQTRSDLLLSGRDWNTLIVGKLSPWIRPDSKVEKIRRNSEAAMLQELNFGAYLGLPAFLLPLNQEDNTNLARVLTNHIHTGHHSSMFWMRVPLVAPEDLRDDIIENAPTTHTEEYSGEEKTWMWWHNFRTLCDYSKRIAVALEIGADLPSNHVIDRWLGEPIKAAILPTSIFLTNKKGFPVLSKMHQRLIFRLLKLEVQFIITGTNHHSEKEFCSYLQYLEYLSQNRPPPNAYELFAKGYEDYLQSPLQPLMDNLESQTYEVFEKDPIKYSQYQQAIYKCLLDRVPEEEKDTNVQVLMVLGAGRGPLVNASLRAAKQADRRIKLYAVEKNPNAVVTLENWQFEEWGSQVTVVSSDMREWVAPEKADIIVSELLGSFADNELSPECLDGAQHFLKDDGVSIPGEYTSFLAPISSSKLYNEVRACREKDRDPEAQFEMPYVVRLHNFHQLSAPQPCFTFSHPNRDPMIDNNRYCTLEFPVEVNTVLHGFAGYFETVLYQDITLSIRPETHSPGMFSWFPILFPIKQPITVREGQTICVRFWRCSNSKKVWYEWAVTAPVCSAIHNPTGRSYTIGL
UniProt Q13131: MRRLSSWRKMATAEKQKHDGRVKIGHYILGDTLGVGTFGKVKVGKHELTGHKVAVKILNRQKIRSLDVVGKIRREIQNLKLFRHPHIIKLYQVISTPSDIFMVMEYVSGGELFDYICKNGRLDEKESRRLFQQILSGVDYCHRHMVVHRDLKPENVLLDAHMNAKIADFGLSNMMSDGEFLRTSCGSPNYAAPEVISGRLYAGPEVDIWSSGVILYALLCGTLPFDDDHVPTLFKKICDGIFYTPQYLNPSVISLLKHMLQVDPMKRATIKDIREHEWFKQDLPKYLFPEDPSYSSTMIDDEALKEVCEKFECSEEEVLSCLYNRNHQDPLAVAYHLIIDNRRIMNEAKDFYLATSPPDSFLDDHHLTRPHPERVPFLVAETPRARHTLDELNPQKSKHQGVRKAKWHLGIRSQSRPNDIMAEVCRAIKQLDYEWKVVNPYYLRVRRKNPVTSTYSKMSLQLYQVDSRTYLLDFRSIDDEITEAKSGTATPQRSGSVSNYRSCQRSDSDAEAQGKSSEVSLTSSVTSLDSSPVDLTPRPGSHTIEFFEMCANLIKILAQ
UniProt P62714, whole entry, looked up: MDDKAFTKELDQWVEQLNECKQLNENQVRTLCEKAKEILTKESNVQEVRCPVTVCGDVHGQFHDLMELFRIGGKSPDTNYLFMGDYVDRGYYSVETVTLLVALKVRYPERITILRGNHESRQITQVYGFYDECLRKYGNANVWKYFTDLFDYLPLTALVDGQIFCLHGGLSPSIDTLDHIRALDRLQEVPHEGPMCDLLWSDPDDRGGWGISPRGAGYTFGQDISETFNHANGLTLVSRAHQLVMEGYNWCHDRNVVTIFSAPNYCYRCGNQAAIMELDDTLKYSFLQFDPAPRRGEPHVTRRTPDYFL
UniProt P49642: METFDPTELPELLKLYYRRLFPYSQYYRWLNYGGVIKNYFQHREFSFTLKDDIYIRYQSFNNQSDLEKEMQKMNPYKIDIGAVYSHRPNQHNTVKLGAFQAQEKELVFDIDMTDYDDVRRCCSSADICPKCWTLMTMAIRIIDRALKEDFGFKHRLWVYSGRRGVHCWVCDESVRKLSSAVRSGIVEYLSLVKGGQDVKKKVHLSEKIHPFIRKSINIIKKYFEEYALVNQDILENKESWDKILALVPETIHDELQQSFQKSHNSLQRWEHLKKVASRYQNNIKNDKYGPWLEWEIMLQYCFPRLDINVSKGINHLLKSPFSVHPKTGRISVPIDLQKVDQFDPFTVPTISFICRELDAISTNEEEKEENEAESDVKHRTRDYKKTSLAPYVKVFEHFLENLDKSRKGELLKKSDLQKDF
UniProt Q9Y570: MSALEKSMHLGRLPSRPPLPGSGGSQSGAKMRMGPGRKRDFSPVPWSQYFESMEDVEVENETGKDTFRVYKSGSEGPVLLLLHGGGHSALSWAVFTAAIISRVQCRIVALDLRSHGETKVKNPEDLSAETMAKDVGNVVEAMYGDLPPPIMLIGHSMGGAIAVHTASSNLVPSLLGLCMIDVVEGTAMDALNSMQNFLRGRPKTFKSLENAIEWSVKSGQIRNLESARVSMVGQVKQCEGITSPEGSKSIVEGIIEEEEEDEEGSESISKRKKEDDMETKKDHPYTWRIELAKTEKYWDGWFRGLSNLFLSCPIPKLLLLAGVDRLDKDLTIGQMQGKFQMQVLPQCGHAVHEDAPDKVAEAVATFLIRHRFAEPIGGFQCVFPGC
UniProt Q99633: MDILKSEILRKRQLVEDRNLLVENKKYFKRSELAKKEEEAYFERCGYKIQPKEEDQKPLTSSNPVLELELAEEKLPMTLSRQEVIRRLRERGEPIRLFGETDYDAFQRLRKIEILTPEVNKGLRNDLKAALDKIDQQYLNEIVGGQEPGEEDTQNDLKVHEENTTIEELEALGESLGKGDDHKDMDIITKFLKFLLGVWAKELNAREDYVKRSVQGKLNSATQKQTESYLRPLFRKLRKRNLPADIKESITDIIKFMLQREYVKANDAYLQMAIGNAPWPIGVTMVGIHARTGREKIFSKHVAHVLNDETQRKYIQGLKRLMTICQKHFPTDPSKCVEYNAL
UniProt Q9UPN7: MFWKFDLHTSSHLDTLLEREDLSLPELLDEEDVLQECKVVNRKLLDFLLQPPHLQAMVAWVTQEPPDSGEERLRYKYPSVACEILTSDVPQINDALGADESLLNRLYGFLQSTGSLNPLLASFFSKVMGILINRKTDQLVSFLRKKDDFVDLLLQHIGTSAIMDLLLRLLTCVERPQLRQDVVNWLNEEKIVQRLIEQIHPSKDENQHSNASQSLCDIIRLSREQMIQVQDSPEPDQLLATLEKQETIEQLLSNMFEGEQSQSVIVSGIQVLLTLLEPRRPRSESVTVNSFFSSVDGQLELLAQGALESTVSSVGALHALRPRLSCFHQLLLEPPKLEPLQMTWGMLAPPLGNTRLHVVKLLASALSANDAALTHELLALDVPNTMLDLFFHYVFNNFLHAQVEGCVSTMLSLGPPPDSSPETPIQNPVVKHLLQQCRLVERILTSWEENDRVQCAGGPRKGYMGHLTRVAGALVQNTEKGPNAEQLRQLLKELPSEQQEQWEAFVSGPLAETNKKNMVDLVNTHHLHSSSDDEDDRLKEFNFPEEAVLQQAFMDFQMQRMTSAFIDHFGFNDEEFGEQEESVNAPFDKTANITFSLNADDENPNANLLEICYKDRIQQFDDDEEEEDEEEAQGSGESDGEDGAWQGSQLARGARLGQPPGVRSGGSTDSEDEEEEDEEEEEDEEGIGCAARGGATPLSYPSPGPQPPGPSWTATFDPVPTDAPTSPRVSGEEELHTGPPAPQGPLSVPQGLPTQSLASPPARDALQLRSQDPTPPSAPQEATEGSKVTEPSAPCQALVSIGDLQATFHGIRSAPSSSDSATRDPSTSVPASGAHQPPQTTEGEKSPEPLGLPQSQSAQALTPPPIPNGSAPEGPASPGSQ
UniProt Q96BP3: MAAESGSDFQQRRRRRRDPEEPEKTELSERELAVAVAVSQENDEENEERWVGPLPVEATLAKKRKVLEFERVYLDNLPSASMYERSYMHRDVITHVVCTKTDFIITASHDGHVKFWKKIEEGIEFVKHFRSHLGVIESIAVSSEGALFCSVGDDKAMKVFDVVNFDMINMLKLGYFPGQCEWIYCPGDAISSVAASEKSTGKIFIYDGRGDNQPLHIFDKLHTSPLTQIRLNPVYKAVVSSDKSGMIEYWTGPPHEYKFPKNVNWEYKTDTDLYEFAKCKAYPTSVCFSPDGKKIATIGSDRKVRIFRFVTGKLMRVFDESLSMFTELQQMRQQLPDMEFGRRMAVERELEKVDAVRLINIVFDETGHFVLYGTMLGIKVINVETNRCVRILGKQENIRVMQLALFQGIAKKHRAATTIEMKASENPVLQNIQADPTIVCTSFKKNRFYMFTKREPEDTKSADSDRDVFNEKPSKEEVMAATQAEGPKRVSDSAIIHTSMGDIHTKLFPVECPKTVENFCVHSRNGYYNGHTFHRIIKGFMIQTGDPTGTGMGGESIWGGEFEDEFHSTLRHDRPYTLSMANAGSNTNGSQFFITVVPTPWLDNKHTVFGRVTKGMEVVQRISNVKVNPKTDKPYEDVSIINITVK

Key:
Assay in all cases: log2 fold change, soluble protein after heating vs DMSO (PISA); higher = thermal stabilisation; K562 lysate, 10 uM; active = over 0.2 and 3.5 SD of the protein, either way, in both replicates (recomputed)
[1] = compound: Cc1cn(-c2cc(NC(=O)c3ccc(C)c(Nc4nccc(-c5cccnc5)n4)c3)cc(C(F)(F)F)c2)cn1 [nilotinib]
Procedure, shortened: (§1)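 A 30 min treatment with 10 μM compound was applied to crude K562 extract at 1 mg/mL protein in PBS pH 7.4 with 1 mM MgCl2. Heating for 3 min spanned 48°C-58°C, after which aliquots were pooled, adjusted to 0.5% NP-40 at 4°C and spun at 21,000xg for 90 min. TMTpro 16plex LC-MS/MS of the supernatant, with channel sums equalised, gave values recorded as log-two fold change in thermal stability against solvent controls, from duplicates.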

[2] = compound: Cc1nc(Nc2n[nH]c3c2CN(C(=O)N[C@H](CN(C)C)c2ccccc2)C3(C)C)c2sccc2n1
Procedure, shortened: as §1

[3] = compound: Cc1nc(Nc2ncc(C(=O)Nc3c(C)cccc3Cl)s2)cc(N2CCN(CCO)CC2)n1 [dasatinib]
Procedure, shortened: as §1

[4] = compound: Cc1ncc(-c2ccnc(Nc3ccc(S(C)(=O)=O)cc3)n2)n1C(C)C
Procedure, shortened: as §1

[5] = compound: Cn1cc(-c2ccc3c(c2)CCN3C(=O)Cc2cccc(C(F)(F)F)c2)c2c(N)ncnc21
Procedure, shortened: as §1

[6] = compound: Cn1cc(CNCC2CCN(c3ncc(C(=O)NO)cn3)CC2)c2ccccc21 [quisinostat]
Procedure, shortened: as §1

[7] = compound: Cn1cncc1[C@@](N)(c1ccc(Cl)cc1)c1ccc2c(c1)c(-c1cccc(Cl)c1)cc(=O)n2C [tipifarnib]
Procedure, shortened: as §1

[8] = compound: NC(=O)Nc1cc(-c2cccc(F)c2)sc1C(=O)N[C@H]1CCCNC1
Procedure, shortened: as §1

[9] = compound: NC(=O)c1cnc(N[C@@H]2CCCC[C@@H]2N)nc1Nc1cccc(-n2nccn2)c1
Procedure, shortened: as §1

[10] = compound: NC1(c2ccc(-c3nc4ccn5c(=O)[nH]nc5c4cc3-c3ccccc3)cc2)CCC1
Procedure, shortened: as §1

Target	log2 fold change [1]	log2 fold change [2]	log2 fold change [3]	log2 fold change [4]	log2 fold change [5]	log2 fold change [6]	log2 fold change [7]	log2 fold change [8]	log2 fold change [9]	log2 fold change [10]
PPP2CB (UniProt E5RHC1)	inactive: -0.156	inactive: -0.014	inactive: -0.076	inactive: 0.175	inactive: -0.05	inactive: -0.041	inactive: 0.202	inactive: -0.022	inactive: -0.229	
PPP4R3B (UniProt Q5MIZ7)	inactive: 0.019	inactive: -0.006	inactive: 0	inactive: -0.029	inactive: 0.024	inactive: -0.053	inactive: 0.001	inactive: 0.027	inactive: 0.014	inactive: -0.001
PPP1R2 (UniProt P41236)	inactive: -0.013	inactive: -0.015	inactive: -0.016	inactive: -0.01	inactive: 0.093	inactive: -0.011	inactive: 0.047	inactive: 0.004	inactive: -0.011	inactive: 0.036
PRKAG2 (UniProt Q9UGJ0)	inactive: -0.118	inactive: 0.173	inactive: -0.025	inactive: 0.096	inactive: 0.082	inactive: 0.042	inactive: -0.097	inactive: 0.1	inactive: 0.06	inactive: 0.051
PQBP1 (UniProt O60828)	inactive: 0.017	inactive: -0.012	inactive: 0.051	inactive: 0.007	inactive: 0.015	inactive: -0.011	inactive: -0.02	inactive: -0.046	inactive: -0.04	inactive: 0.013
PPM1G (UniProt O15355)	inactive: -0.011	inactive: 0.018	inactive: 0.002	inactive: 0.008	inactive: 0.033	inactive: 0.034	inactive: 0.02	inactive: -0.021	inactive: 0	inactive: 0.029
PRKAB2 (UniProt O43741)	inactive: 0.033	inactive: 0.203	inactive: -0.049	inactive: 0.106	inactive: 0.042	inactive: -0.031	inactive: -0.031	inactive: 0.14	inactive: 0.036	inactive: 0.023
PRMT8 (UniProt Q9NR22)	inactive: 0.007	inactive: -0.021	inactive: -0.039	inactive: -0.01	inactive: -0.023	inactive: -0.057	inactive: 0.036	inactive: 0.034	inactive: -0.023	inactive: -0.056
PRCP (UniProt P42785)	inactive: 0.013	inactive: 0	inactive: -0.023	inactive: 0.055	inactive: 0.016	inactive: 0.007	inactive: 0.04	inactive: 0.012	inactive: 0.005	inactive: 0.077
PRKCSH (UniProt K7ELL7)	inactive: -0.013	inactive: -0.163	inactive: 0.014	inactive: 0.125	inactive: -0.015	inactive: 0.04	inactive: 0.024	inactive: 0.024	inactive: -0.032	inactive: -0.031
PPM1E (UniProt Q8WY54)	inactive: 0.028	inactive: -0.059	inactive: 0.074	inactive: 0.139	inactive: 0.043	inactive: -0.019	inactive: 0.017	inactive: -0.03	inactive: -0.045	inactive: 0.045
PRKACA (UniProt P17612)	inactive: -0.055	active: 0.638	inactive: 0.07	inactive: 0.068	inactive: 0.049	inactive: 0.097	inactive: -0.083	active: 0.637	inactive: 0.273	inactive: -0.038
PRDX2 (UniProt P32119)	inactive: -0.011	inactive: 0.006	inactive: 0.051	inactive: -0.034	inactive: -0.011	inactive: -0.001	inactive: -0.009	inactive: -0.012	inactive: -0.01	inactive: 0.008
PRKCQ (UniProt Q04759)	inactive: -0.03	inactive: 0.001	inactive: -0.111	inactive: -0.079	inactive: -0.004	inactive: 0.029	inactive: 0.023	inactive: -0.214	inactive: -0.02	inactive: 0.006
PPIP5K2 (UniProt O43314)	inactive: -0.018	inactive: -0.005	inactive: -0.029	inactive: 0.091	inactive: 0.005	inactive: -0.032	inactive: 0.047	inactive: 0.114	inactive: 0.1	inactive: 0.004
PRAME (UniProt P78395)	inactive: 0.028	inactive: 0.005	inactive: -0.004	inactive: 0.001	inactive: -0.017	inactive: -0.081	inactive: -0.007	inactive: 0.053	inactive: -0.01	inactive: -0.006
PPP1R9B (UniProt Q96SB3)	inactive: -0.054	inactive: 0.018	inactive: 0.033	inactive: -0.011	inactive: 0.053	inactive: 0.01	inactive: 0.017	inactive: -0.002	inactive: 0.002	inactive: 0.026
PPP2CA (UniProt P67775)	inactive: -0.009	inactive: 0.037	inactive: 0.017	inactive: 0.009	inactive: 0.057	inactive: 0.185	inactive: 0.024	inactive: -0.093	inactive: -0.008	inactive: 0.023
PRMT5 (UniProt O14744)	inactive: 0	inactive: 0.005	inactive: 0.094	inactive: -0.024	inactive: -0.028	inactive: -0.027	inactive: 0	inactive: 0.035	inactive: -0.015	inactive: -0.019
PRKAA1 isoform 2 (UniProt Q13131)	inactive: -0.027	inactive: 0.186	inactive: 0.012	inactive: 0.071	inactive: 0.012	inactive: -0.009	inactive: -0.048	inactive: 0.15	inactive: 0.047	inactive: 0.059
PRKRIP1 (UniProt Q9H875)	inactive: 0	inactive: -0.031	inactive: 0.05	inactive: -0.006	inactive: 0	inactive: 0.016	inactive: 0.017	inactive: -0.015	inactive: -0.012	inactive: -0.005
PPP2CB (UniProt P62714)	inactive: 0.036	inactive: 0.021	inactive: 0.025	inactive: 0.041	inactive: -0.021	inactive: 0.036	inactive: -0.022	inactive: -0.026	inactive: 0.002	inactive: -0.038
PRIM1 (UniProt P49642)	inactive: 0	inactive: -0.011	inactive: -0.05	inactive: -0.006	inactive: 0.019	inactive: 0.014	inactive: -0.022	inactive: 0.028	inactive: 0.001	inactive: -0.031
PPME1 isoform 4 (UniProt Q9Y570)	inactive: 0.01	inactive: -0.053	inactive: -0.008	inactive: -0.025	inactive: -0.003	inactive: 0.018	inactive: 0.01	inactive: -0.03	inactive: -0.016	inactive: 0.041
PRDX4 (UniProt Q13162)	inactive: -0.042	inactive: 0.006	inactive: 0.01	inactive: -0.004	inactive: -0.006	inactive: -0.04	inactive: -0.013	inactive: -0.018	inactive: 0.016	inactive: 0.01
PRPF18 (UniProt Q99633)	inactive: -0.082	inactive: 0.21	inactive: 0.03	inactive: -0.042	inactive: -0.002	inactive: -0.045	inactive: -0.086	inactive: 0.029	inactive: 0.02	inactive: 0.018
PPP6R1 (UniProt Q9UPN7)	inactive: 0.009	inactive: 0.012	inactive: -0.014	inactive: -0.018	inactive: 0.023	inactive: -0.011	inactive: -0.007	inactive: 0.045	inactive: 0.005	inactive: -0.009
PREP (UniProt P48147)	inactive: 0	inactive: -0.014	inactive: -0.026	inactive: -0.002	inactive: 0.007	inactive: 0.008	inactive: 0.023	inactive: 0.011	inactive: 0.006	inactive: -0.005
PPP4C (UniProt P60510)	inactive: 0.016	inactive: -0.045	inactive: 0.059	inactive: 0.028	inactive: 0.022	inactive: -0.046	inactive: 0.006	inactive: -0.029	inactive: -0.022	inactive: -0.01
PPWD1 (UniProt Q96BP3)	inactive: -0.005	inactive: 0.01	inactive: -0.021	inactive: 0	inactive: 0.009	inactive: -0.03	inactive: 0.004	inactive: -0.009	inactive: -0.011	inactive: -0.008

Fetched one by one from the entries so far (2):
Target	log2 fold change [1]	log2 fold change [2]	log2 fold change [3]	log2 fold change [4]	log2 fold change [5]	log2 fold change [6]	log2 fold change [7]	log2 fold change [8]	log2 fold change [9]	log2 fold change [10]
PRAME (UniProt P78395)	inactive: 0.028	inactive: 0.005	inactive: -0.004	inactive: 0.001	inactive: -0.017	inactive: -0.081	inactive: -0.007	inactive: 0.053	inactive: -0.01	inactive: -0.006
PRKCQ (UniProt Q04759)	inactive: -0.03	inactive: 0.001	inactive: -0.111	inactive: -0.079	inactive: -0.004	inactive: 0.029	inactive: 0.023	inactive: -0.214	inactive: -0.02	inactive: 0.006
